Experimental data reported in PMC4702135.
Results are given in words; binding and its absence hold for the method and conditions named. Binding seen in cells or lysates may run through a third protein. Some results given as binding are weak or reduced against the parent protein; the word gives no strength. For part of these data: Tags and fused reporters may be left off the sequences shown.

Key:
[1] = molecular target: T1, Endogenous RRM2B, ribonucleotide reductase small subunit B (human (endogenous in 293T)) (UniProt Q7LG56); test: co-IP; endogenous proteins; whole cell lysate of proliferating 293T cells precipitated with antibodies to RRM2B, PYCR1 or PYCR2 or control rabbit or mouse IgG; Western blot
T1 sequence: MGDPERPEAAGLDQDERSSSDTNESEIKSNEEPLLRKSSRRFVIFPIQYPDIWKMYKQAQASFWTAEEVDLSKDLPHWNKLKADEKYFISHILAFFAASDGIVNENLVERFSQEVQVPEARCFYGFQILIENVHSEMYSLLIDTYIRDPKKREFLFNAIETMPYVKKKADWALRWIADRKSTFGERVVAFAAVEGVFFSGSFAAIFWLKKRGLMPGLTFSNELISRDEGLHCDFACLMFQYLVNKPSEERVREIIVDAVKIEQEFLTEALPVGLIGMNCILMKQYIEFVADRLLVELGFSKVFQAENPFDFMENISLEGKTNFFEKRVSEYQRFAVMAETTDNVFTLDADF

[2] = molecular target: T2, Flag-tagged RRM2B (Flag at the C-terminus) (human) (UniProt Q7LG56); test: co-IP; whole cell lysates of doxycycline-induced (24 h) 293 T-REx lines expressing epitope-tagged RRM2B, precipitated with anti-Flag beads, anti-HA beads or Strep-Tactin resin; buffer A (50 mM HEPES pH 7.5, 70 mM potassium acetate, 5 mM magnesium acetate), 4 °C; Western blot; untagged RRM2B cells as control
T2 sequence: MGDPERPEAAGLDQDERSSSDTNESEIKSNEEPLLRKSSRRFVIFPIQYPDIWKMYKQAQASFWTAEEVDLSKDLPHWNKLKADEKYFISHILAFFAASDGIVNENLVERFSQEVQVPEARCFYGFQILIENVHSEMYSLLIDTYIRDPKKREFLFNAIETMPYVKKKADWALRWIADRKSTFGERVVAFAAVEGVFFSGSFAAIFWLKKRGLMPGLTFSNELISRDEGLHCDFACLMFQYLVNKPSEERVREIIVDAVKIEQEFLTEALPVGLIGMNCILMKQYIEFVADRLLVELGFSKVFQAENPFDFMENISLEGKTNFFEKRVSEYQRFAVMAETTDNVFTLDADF

[3] = molecular target: T3, Flag-tagged RRM2B (Flag at the N-terminus), ribonucleotide reductase small subunit B (human) (UniProt Q7LG56); test: as above
T3 sequence: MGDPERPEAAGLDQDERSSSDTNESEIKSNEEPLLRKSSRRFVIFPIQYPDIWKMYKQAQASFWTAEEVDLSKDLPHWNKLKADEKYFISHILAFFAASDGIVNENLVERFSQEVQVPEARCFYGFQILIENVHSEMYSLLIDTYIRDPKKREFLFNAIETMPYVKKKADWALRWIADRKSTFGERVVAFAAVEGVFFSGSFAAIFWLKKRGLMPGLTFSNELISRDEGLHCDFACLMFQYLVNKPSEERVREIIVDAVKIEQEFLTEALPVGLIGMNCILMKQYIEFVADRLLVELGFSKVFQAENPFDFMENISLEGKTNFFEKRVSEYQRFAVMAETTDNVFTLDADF

[4] = molecular target: T4, HA-tagged RRM2B (HA at the C-terminus) (human) (UniProt Q7LG56); test: as above
T4 sequence: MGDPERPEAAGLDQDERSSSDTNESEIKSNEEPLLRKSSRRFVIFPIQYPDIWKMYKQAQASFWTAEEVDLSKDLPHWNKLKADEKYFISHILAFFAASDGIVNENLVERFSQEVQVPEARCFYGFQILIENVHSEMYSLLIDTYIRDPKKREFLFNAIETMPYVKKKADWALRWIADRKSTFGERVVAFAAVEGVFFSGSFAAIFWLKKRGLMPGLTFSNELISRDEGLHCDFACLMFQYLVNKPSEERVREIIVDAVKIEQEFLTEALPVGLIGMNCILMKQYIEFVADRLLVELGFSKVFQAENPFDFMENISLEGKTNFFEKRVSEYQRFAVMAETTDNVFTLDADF

[5] = molecular target: T5, OneStrep-tagged RRM2B (OneStrep at the C-terminus) (human) (UniProt Q7LG56); test: as above
T5 sequence: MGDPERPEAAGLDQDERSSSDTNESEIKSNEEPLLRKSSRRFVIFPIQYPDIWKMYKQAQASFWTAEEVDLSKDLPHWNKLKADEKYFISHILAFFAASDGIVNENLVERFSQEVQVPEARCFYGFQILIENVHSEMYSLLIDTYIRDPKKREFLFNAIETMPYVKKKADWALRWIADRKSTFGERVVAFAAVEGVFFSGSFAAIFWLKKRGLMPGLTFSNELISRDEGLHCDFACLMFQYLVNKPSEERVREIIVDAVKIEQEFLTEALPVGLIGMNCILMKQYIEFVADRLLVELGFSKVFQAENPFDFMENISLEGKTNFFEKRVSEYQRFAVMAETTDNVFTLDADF

[6] = molecular target: T6, Flag-tagged RRM2B, transiently expressed in 293T cells (human) (UniProt Q7LG56); test: co-IP; 293T cells co-transfected with untagged RRM2B or Flag-RRM2B and HA-PYCR1, HA-PYCR2 or HA-PYCRL, lysed 48 hours later; whole cell lysates precipitated with antibodies to HA or Flag; Western blot
T6 sequence: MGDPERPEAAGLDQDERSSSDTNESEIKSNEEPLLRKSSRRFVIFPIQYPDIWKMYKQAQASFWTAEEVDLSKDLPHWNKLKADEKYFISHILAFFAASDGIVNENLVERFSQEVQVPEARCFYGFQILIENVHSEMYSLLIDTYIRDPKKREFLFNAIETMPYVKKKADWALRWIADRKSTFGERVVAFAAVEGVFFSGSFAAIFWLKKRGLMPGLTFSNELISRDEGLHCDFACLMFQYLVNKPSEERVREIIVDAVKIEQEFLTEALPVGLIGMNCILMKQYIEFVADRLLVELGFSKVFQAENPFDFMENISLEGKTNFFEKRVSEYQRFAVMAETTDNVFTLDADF

Measured: binding

B1: RRM2, ribonucleotide reductase small subunit (protein, UniProt P31350 1-389)
chain: MLSLRVPLAPITDPQQLQLSPLKGLSLVDKENTPPALSGTRVLASKTARRIFQEPTEPKTKAAAPGVEDEPLLRENPRRFVIFPIEYHDIWQMYKKAEASFWTAEEVDLSKDIQHWESLKPEERYFISHVLAFFAASDGIVNENLVERFSQEVQITEARCFYGFQIAMENIHSEMYSLLIDTYIKDPKEREFLFNAIETMPCVKKKADWALRWIGDKEATYGERVVAFAAVEGIFFSGSFASIFWLKKRGLMPGLTFSNELISRDEGLHCDFACLMFKHLVHKPSEERVREIIINAVRIEQEFLTEALPVKLIGMNCTLMKQYIEFVADRLMLELGFSKVFRVENPFDFMENISLEGKTNFFEKRVGEYQRMGVMSSPTENSFTLDADF
binds: [1] | [2] | [3] | [4] | [5]

B2: HA-tagged pyrroline-5-carboxylate reductase-like (PYCRL) (protein, UniProt Q53H96 1-274)
chain: MAAAEPSPRRVGFVGAGRMAGAIAQGLIRAGKVEAQHILASAPTDRNLCHFQALGCRTTHSNQEVLQSCLLVIFATKPHVLPAVLAEVAPVVTTEHILVSVAAGVSLSTLEELLPPNTRVLRVLPNLPCVVQEGAIVMARGRHVGSSETKLLQHLLEACGRCEEVPEAYVDIHTGLSGSGVAFVCAFSEALAEGAVKMGMPSSLAHRIAAQTLLGTAKMLLHEGQHPAQLRSDVCTPGGTTIYGLHALEQGGLRAATMSAVEAATCRAKELSRK
binds: [6]
